Measurements: the supplement of paper PMC11006884
The entries are a selection whose mix differs from that of the whole data set.

The chains behind the UniProt entries cited, without tags or fusion partners. Where a name states a change or a piece, a line headed by the entry shows the natural chain unless it says otherwise.
UniProt Q14192: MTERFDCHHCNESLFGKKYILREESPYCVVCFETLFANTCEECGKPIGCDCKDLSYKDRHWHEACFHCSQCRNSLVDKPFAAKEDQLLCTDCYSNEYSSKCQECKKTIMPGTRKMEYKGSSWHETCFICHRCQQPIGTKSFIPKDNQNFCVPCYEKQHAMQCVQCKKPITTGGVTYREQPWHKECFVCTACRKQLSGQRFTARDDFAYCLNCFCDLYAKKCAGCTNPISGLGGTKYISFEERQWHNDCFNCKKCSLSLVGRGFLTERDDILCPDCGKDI
UniProt Q14151: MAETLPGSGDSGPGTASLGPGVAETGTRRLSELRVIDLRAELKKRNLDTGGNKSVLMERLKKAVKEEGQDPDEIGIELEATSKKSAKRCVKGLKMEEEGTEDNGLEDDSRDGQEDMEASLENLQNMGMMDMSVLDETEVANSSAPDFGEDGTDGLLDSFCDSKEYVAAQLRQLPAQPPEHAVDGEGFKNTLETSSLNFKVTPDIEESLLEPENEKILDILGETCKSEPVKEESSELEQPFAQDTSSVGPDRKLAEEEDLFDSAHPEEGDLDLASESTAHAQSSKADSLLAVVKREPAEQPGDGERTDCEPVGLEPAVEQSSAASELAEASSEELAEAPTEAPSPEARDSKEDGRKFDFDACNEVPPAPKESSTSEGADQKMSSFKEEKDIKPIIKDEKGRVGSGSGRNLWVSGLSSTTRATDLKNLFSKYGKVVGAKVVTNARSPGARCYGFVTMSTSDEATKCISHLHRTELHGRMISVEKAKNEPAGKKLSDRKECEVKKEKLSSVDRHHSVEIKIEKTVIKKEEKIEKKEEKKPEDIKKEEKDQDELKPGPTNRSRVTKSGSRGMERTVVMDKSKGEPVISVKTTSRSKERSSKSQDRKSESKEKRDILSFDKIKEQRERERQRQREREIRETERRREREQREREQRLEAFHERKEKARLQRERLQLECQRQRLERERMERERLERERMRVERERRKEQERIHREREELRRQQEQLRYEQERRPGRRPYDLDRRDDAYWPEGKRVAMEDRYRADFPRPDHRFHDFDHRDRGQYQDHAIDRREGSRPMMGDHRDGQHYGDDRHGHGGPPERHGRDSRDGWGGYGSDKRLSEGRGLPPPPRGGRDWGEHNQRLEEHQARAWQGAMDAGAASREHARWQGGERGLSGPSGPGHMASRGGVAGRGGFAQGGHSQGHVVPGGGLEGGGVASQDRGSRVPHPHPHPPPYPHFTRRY
UniProt Q14202: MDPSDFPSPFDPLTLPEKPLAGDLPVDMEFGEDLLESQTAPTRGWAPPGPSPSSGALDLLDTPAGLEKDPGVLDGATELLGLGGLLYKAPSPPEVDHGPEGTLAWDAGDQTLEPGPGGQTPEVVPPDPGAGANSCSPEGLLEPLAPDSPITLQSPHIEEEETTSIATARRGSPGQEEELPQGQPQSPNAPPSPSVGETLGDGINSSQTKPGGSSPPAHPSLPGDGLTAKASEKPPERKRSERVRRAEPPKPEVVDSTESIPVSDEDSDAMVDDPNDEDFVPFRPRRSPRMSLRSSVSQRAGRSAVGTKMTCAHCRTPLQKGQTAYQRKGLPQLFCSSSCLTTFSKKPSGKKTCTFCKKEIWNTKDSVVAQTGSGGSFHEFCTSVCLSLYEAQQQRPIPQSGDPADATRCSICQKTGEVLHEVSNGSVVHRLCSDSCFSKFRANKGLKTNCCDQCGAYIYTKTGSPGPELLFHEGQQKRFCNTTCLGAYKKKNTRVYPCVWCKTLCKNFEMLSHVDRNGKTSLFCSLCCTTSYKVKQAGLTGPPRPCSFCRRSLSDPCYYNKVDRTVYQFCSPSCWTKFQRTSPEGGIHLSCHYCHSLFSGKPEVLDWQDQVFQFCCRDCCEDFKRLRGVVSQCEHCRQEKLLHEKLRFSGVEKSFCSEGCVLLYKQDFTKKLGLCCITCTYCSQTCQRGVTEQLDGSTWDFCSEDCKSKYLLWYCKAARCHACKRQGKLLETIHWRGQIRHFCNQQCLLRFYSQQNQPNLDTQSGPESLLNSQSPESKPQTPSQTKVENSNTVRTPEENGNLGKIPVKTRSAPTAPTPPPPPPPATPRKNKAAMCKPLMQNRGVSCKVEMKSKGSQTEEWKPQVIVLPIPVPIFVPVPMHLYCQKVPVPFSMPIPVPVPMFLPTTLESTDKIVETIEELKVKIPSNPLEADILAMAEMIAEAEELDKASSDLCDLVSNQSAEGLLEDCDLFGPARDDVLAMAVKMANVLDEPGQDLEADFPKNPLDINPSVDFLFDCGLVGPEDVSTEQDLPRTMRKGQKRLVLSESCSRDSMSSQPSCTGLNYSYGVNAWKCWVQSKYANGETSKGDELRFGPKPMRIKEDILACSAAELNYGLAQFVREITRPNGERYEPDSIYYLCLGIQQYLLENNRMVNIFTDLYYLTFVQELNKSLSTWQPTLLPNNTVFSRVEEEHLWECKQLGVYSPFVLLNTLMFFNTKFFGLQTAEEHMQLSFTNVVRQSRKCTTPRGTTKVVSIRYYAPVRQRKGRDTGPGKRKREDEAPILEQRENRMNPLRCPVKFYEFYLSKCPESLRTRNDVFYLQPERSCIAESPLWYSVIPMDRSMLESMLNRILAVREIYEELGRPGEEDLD
UniProt Q13642: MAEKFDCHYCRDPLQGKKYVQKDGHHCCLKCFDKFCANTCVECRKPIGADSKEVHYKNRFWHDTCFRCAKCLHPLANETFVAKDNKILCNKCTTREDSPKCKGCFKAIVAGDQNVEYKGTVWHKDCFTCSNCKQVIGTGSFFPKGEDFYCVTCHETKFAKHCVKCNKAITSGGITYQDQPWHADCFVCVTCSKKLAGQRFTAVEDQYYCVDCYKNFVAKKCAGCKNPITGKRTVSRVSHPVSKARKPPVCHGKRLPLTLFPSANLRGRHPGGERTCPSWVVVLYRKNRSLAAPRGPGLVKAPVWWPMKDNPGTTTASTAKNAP
UniProt Q14168: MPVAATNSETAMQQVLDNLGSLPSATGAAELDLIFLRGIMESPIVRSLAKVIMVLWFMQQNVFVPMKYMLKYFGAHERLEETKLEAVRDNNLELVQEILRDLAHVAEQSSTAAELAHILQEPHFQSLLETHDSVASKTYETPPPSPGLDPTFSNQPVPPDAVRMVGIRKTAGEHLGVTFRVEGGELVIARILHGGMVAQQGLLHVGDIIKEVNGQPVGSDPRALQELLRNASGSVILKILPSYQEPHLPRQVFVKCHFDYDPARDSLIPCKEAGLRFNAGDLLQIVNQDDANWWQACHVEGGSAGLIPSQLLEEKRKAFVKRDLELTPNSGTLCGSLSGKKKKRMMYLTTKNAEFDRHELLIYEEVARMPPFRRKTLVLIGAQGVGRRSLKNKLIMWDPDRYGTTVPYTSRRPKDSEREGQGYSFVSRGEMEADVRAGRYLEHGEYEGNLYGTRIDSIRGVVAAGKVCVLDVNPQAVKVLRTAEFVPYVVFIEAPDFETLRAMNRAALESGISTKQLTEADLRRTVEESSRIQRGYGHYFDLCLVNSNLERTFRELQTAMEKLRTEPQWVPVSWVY
UniProt Q14C86: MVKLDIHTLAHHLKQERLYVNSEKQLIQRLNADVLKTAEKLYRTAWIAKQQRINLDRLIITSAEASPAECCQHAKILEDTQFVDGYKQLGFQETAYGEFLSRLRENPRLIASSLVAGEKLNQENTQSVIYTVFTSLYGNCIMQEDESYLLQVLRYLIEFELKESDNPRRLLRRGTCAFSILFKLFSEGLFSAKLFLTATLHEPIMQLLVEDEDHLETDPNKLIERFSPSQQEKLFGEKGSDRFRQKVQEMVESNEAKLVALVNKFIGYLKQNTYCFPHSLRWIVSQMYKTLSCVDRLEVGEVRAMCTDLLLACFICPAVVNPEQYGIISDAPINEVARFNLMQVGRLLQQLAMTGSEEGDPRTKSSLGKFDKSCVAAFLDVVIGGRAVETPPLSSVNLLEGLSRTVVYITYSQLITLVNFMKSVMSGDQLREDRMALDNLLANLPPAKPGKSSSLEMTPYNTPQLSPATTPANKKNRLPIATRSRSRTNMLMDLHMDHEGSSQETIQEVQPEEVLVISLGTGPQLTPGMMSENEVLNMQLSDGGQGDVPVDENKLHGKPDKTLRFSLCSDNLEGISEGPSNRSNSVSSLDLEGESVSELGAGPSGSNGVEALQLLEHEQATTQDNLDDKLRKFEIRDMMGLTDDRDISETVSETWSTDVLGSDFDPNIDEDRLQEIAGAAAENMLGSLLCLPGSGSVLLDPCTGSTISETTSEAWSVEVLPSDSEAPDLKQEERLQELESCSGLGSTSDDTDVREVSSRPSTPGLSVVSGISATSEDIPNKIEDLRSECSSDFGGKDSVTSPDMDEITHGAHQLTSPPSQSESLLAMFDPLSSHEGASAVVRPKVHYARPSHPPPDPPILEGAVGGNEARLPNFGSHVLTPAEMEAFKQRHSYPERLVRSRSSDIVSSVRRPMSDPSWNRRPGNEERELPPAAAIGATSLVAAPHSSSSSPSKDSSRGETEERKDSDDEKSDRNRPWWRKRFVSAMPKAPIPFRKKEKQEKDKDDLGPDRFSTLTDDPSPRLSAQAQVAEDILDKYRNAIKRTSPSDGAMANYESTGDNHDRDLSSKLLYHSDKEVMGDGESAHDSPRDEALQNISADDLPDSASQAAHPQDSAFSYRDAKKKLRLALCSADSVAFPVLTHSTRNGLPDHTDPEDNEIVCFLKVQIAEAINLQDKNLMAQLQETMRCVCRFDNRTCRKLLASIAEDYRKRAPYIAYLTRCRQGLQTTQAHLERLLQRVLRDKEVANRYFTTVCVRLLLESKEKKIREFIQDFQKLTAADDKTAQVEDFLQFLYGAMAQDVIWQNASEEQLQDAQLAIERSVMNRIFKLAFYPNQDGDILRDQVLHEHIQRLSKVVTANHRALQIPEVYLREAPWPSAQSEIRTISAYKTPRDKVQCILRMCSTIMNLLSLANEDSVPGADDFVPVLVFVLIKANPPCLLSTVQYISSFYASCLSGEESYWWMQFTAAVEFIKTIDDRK
UniProt Q14258, whole entry, looked up: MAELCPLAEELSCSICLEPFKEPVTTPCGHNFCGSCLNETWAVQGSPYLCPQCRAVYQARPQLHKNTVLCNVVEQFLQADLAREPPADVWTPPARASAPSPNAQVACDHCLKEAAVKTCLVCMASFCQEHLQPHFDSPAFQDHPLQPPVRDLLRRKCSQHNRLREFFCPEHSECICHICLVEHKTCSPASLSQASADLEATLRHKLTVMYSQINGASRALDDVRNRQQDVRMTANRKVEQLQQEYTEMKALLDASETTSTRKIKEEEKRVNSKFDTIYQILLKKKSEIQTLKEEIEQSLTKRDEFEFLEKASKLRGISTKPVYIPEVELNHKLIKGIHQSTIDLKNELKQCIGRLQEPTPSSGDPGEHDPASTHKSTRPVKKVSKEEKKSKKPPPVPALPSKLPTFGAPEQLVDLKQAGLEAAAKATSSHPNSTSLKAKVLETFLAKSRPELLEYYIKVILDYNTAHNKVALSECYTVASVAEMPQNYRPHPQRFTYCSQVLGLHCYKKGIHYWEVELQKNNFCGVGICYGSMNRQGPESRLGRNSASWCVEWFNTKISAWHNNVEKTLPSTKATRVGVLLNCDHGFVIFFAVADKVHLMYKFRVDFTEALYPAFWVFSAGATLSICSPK
UniProt Q13526, whole entry, looked up: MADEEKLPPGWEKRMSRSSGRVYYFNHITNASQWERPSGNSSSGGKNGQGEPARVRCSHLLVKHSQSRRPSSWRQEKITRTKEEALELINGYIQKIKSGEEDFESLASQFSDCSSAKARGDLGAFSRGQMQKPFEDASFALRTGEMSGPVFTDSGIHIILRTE
UniProt Q15003, whole entry, looked up: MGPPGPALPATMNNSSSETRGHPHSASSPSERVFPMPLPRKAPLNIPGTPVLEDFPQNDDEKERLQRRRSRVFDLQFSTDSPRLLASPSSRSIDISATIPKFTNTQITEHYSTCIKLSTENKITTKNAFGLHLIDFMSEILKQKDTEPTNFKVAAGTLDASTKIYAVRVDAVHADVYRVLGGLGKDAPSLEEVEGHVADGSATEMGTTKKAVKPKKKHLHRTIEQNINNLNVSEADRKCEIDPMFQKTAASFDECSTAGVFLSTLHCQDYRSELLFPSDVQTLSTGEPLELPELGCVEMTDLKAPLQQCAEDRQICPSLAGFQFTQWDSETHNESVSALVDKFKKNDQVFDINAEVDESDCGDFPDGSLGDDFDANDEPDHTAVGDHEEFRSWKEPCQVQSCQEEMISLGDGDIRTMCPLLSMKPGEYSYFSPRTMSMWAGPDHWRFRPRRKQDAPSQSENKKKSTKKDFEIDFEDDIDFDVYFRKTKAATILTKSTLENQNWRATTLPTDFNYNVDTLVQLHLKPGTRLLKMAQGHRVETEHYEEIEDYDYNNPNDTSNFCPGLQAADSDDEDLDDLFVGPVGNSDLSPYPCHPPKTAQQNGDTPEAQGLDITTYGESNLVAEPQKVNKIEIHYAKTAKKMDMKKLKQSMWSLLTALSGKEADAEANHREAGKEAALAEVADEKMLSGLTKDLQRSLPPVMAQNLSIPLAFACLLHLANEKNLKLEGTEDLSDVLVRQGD

Compound: COC(=O)C#Cc1ccccc1 [methyl 3-phenylpropiolate]
Experiment: log2 ratio of iodoacetamide-alkyne labeling of the cysteine site, DMSO over compound (competition); higher = stronger covalent engagement of the cysteine by the compound, active = 1 or more
Settings: 500 µM; treatment time 1 h; system: HEK293T cell lysate
How it was run: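 The log2 competition ratio per cysteine is defined as mean reporter intensity in control channels over mean reporter intensity in compound channels. Lysate from HEK293T cells (2 mg/mL) received electrophile (500 µM) or vehicle for 1 h at ambient temperature, followed by iodoacetamide alkyne for 1 h. Samples were clicked to sCIP-TMT reagents, pooled, trypsin-digested overnight at 37 °C, streptavidin-enriched, acid-eluted and run on Orbitrap Eclipse LC-MS/MS with FAIMS, with quantification in FragPipe. Three replicates with duplicate channels were used, and any cysteine quantified in only one replicate was excluded.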

log2 ratio of iodoacetamide-alkyne labeling, inactive:
FHL2 C132 (UniProt Q14192) 0.0991
SAFB2 C449 (UniProt Q14151) 0.0863
ZMYM3 C557 (UniProt Q14202) 0.228
FHL1 C209 (UniProt Q13642) 0.0707
SMC1A C1073 (UniProt Q14683) 0.271
DYNC1H1 C4121 (UniProt Q14204) 0.159
DGKZ C540 (UniProt Q13574) -0.0853
MPP2 C334 (UniProt Q14168) 0.598
SPTAN1 C1930 (UniProt Q13813) 0.167
GAPVD1 C1220 (UniProt Q14C86) 0.244
BOP1 C108 (UniProt Q14137) 0.697
TRIM25 C70 (UniProt Q14258) 0.188
PIN1 C113 (UniProt Q13526) 0.0305
NCAPH C397 (UniProt Q15003) 0.622
TRIP12 C332 (UniProt Q14669) 0.439

Random excerpt: 2 records from the list.
log2 ratio of iodoacetamide-alkyne labeling, inactive:
DGKZ C540 (UniProt Q13574) -0.0853
SAFB2 C449 (UniProt Q14151) 0.0863
